Laboratory results as given in publication PMC10682204.
These are yes or no findings as the source states them, for the method shown. Binding can be weak; no strength is given. One block for each binder: values may come before it.

How the values were obtained:
[1] = biological target: PtrBPL2 (Populus trichocarpa); experiment: two-hybrid; Matchmaker GAL4-based system, yeast AH109; PtrBPL baits fused to the GAL4 DNA-binding domain, AtTGA preys fused to the GAL4 activation domain; dilution series on SC/-Leu/-Trp/-His plus 10 mM 3-AT, His reporter growth above background
[2] = biological target: PtrBPL1 (Populus trichocarpa); experiment: as above

binding [1]: binds | binding [2]: binds
B1: AtTGA4 (protein, UniProt Q39162 1-364)
chain: MNTTSTHFVPPRRFEVYEPLNQIGMWEESFKNNGDMYTPGSIIIPTNEKPDSLSEDTSHGTEGTPHKFDQEASTSRHPDKIQRRLAQNREAARKSRLRKKAYVQQLETSRLKLIHLEQELDRARQQGFYVGNGVDTNALSFSDNMSSGIVAFEMEYGHWVEEQNRQICELRTVLHGQVSDIELRSLVENAMKHYFQLFRMKSAAAKIDVFYVMSGMWKTSAERFFLWIGGFRPSELLKVLLPHFDPLTDQQLLDVCNLRQSCQQAEDALSQGMEKLQHTLAESVAAGKLGEGSYIPQMTCAMERLEALVSFVNQADHLRHETLQQMHRILTTRQAARGLLALGEYFQRLRALSSSWAARQREPT

binding [1]: binds | binding [2]: binds
B2: AtTGA8/PAN (protein, UniProt Q9SX27 1-452)
chain: MQSSFKTVPFTPDFYSQSSYFFRGDSCLEEFHQPVNGFHHEEAIDLSPNVTIASANLHYTTFDTVMDCGGGGGGGLRERLEGGEEECLDTGQLVYQKGTRLVGGGVGEVNSSWCDSVSAMADNSQHTDTSTDIDTDDKTQLNGGHQGMLLATNCSDQSNVKSSDQRTLRRLAQNREAARKSRLRKKAYVQQLENSRIRLAQLEEELKRARQQGSLVERGVSADHTHLAAGNGVFSFELEYTRWKEEHQRMINDLRSGVNSQLGDNDLRVLVDAVMSHYDEIFRLKGIGTKVDVFHMLSGMWKTPAERFFMWLGGFRSSELLKILGNHVDPLTDQQLIGICNLQQSSQQAEDALSQGMEALQQSLLETLSSASMGPNSSANVADYMGHMAMAMGKLGTLENFLRQADLLRQQTLQQLHRILTTRQAARAFLVIHDYISRLRALSSLWLARPRD
